This is an account of results in article PMC7819943, “Rice protein-binding microarrays: a tool to detect cis-acting elements near promoter regions in rice”.

Amino acid sequences for entries named in this document (tags omitted).
UniProt Q0JBA9, entry or part of it: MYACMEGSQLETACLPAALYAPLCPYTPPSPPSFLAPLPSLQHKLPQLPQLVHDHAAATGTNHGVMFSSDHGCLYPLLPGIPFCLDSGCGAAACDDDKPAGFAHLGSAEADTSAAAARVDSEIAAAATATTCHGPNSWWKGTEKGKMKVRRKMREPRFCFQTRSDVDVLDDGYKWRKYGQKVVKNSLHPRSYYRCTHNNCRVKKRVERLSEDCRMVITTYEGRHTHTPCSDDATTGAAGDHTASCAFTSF

This is one part of the list.

This test deals with OsWRKY34 (Oryza sativa, UniProt Q0JBA9 1-250). The test is described as follows: protein-binding microarray (RPBM); PBS, 2% BSA, 51.3 ng/ul salmon testes DNA, 50 uM zinc acetate, 200 nM TF, 25 C, 1 h; high values mean tight binding. Conditions: protein: recombinant; tags: N-terminal polyhistidine and DsRed monomer fusion (pET32a); label: CyDye5-dUTP incorporated in the synthesized complementary strand; 3' TTTTT single-stranded linker to array surface; dsDNA, one strand shown. The method in brief: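 A custom Agilent array was converted to double-stranded form by primer extension with Cy5-dUTP and blocked with 2% BSA. Protein at 200 nM in PBS with 2% BSA, salmon testes DNA and 50 µM zinc acetate was applied for 1 h at 25 °C, followed by washing. The proteins were polyhistidine–DsRed N-terminal fusions of transcription factors, expressed in E. coli BL21-CodonPlus and Ni–NTA-purified. The binding signal is per-feature fluorescence intensity (arbitrary units) from an Axon 4000B scanner.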
Consider “CCTAGCTACCTCACACACAGCCCACACCACCTCTCATCGACGGAGTCACCTAGTGCAG”, for which the binding signal was 9050 fluorescence intensity (a.u.).
Take “GACATATAGGCCCCACGTAATTTTTTTAATTTTTTTTCTGCGGAGTCACCTAGTGCAG”: the binding signal is 8310 fluorescence intensity (a.u.).
As for “GGCGAGGACAACCGATCTTCGGTCTCCTACTTCTTCTCTTCGGAGTCACCTAGTGCAG”, the figure is 8100 fluorescence intensity (a.u.); as for “CAAATTTCGCAAGGGCGATTTTTGGGTGGGTAGGTATAAACGGAGTCACCTAGTGCAG”, 10400 fluorescence intensity (a.u.); as for “GATTGATCTCATTATTTCCTTCCCTTCAATTTCTTAATTCCGGAGTCACCTAGTGCAG”, 9810 fluorescence intensity (a.u.).
Next, “CTAACCAATCATCAAATTGTCACTGAAGTCCAAGCTACAACGGAGTCACCTAGTGCAG”: 8150 fluorescence intensity (a.u.); “TGGATTGATCACCAGATGGAATATCCCGTGTACGCTTTCCCGGAGTCACCTAGTGCAG”: 8060 fluorescence intensity (a.u.).
Next, “CCATGTCGCCGCCGCCGACCACCCGGACGCCCTCCGCGCGCGGAGTCACCTAGTGCAG”: 11500 fluorescence intensity (a.u.).
On to “AAATCCTATGTTTTTCTTATTCTTTTATTTTTTCAACCCTCGGAGTCACCTAGTGCAG”, for which the binding signal is 8280 fluorescence intensity (a.u.).
With “CCGCTGCTTGGTCTCGTTTGGTTCCATCCGCTATGGCAGGCGGAGTCACCTAGTGCAG”, the binding signal is 8710 fluorescence intensity (a.u.).
Take “TTGGGGCTAGTGTATTAGAATTAGTATAGATGTGATATATCGGAGTCACCTAGTGCAG”: the binding signal was 8060 fluorescence intensity (a.u.).
As for “ACTTAATATTGGCCCACTTAACTAGTCGGACACATTGTCCCGGAGTCACCTAGTGCAG”, the figure is 8320 fluorescence intensity (a.u.); as for “GTCGTCACTCACTCCACCGTACTACACTCGCCTTCTTCTCCGGAGTCACCTAGTGCAG”, 9320 fluorescence intensity (a.u.).
Turning to “GTGGGCAGATTTAGTTTTAATGGGTGTGGGTACGGAGAGTCGGAGTCACCTAGTGCAG”, the binding signal was 8900 fluorescence intensity (a.u.).
In the case of “CTTCTCTACTTTGACCATACGGGTTTCGCATCAAACAAAACGGAGTCACCTAGTGCAG”, the binding signal is 12200 fluorescence intensity (a.u.).
Next, “ATAGGTGTGCTGATATCTCTATGTTTGGCTGGGAATCGGACGGAGTCACCTAGTGCAG”: 13800 fluorescence intensity (a.u.).
As for “TTATCTAAATGTCCGGATTGCCCTTTCTCTTTCCTTCTTTCGGAGTCACCTAGTGCAG”, the figure is 10200 fluorescence intensity (a.u.); as for “TGGATCATTGCTTATCTTTGTTGTTCTTCTTTCAGTATATCGGAGTCACCTAGTGCAG”, 11200 fluorescence intensity (a.u.).
Next, “CATGCCAATCATAAATAATGACATATTGGTTGACTTTTTGCGGAGTCACCTAGTGCAG”: 11000 fluorescence intensity (a.u.); “AGGGTAAGAGGAGGAGGAGGAGGGGTAGGCGAGGGAGATGCGGAGTCACCTAGTGCAG”: 8490 fluorescence intensity (a.u.).
As to “CAGCTTGCCGCTGTTTTTTCCTTTTCTGTTGGTATATATTCGGAGTCACCTAGTGCAG”, the binding signal is 10800 fluorescence intensity (a.u.).
For the sequence “GCACACCATCAACCCAGCCTCGTCACGGAGCCATCGACGACGGAGTCACCTAGTGCAG”, the binding signal is 8190 fluorescence intensity (a.u.).
Consider “GAGCTTTTGATCTAGTCGGGTAGTCCTCTTGGGTGTTTGACGGAGTCACCTAGTGCAG”, for which the binding signal was 8420 fluorescence intensity (a.u.).
As for “TAGTGTTGCTTGCAGTCTTGTTTTGTCATTCGTGCTAATCCGGAGTCACCTAGTGCAG”, the figure is 9070 fluorescence intensity (a.u.).
Next, “AACACGTCCGCGCCTCCGCGATTTCTTTTCTCCTATTAACCGGAGTCACCTAGTGCAG”: 8520 fluorescence intensity (a.u.); “ATTTTAATTAATCTCGTGTTGGGTTCTTATATGGTTTTTCCGGAGTCACCTAGTGCAG”: 8350 fluorescence intensity (a.u.).
As for “ACCCACCACTCCGTCCGCACGCCACCACTTCGTCCGCACGCGGAGTCACCTAGTGCAG”, the binding signal is 9560 fluorescence intensity (a.u.).
As for “CATTTTTTGCCACCATTAGTTTACCGGCCGTAAGCATGTCCGGAGTCACCTAGTGCAG”, the figure is 9590 fluorescence intensity (a.u.).
As for “ATGTACTTTTTTATTTTTTTTGCTGACTATGATGCCACGTCGGAGTCACCTAGTGCAG”, the figure is 9690 fluorescence intensity (a.u.); as for “ATAGACAGTTCAGGGTTAAAATATTTCGGTTTTGTGGTTTCGGAGTCACCTAGTGCAG”, 8490 fluorescence intensity (a.u.); as for “TTTCAGCTTCCATCATCACCATCACTACTATTCACTACTTCGGAGTCACCTAGTGCAG”, 8500 fluorescence intensity (a.u.).
Next, “TCTGGACTGTGTGTTCTTCTTTGGTGGCAGATTTGGTTTGCGGAGTCACCTAGTGCAG”: 10300 fluorescence intensity (a.u.); “TGCAATCTTTCGTAACAATCTCTGCCACGGTGCACCCCTCCGGAGTCACCTAGTGCAG”: 8540 fluorescence intensity (a.u.); “GACAGACACTTGCACTTGCTCTCCGCTGCCGTTCCCCTTCCGGAGTCACCTAGTGCAG”: 8500 fluorescence intensity (a.u.).
Take “GCCGCCAGCTCACCCTGACACGCACGCCACGTGCGCCACCCGGAGTCACCTAGTGCAG”: the binding signal is 8470 fluorescence intensity (a.u.).
As to “TAATCCGCTACGTTGCCCTGGTTTGTCTGTGCATTTTTCGCGGAGTCACCTAGTGCAG”, the binding signal is 8230 fluorescence intensity (a.u.).
Consider “AATCGTTGTCTCCTACAGTAACATTTTCACACATTGCACACGGAGTCACCTAGTGCAG”, for which the binding signal is 9080 fluorescence intensity (a.u.).
Next, “TATTATAGTAGAGACTTGGTCAAACTTTCAAAAAGTTTGACGGAGTCACCTAGTGCAG”: 8120 fluorescence intensity (a.u.); “GCCCGCCGGACCTGATCCCGCCTCACCTCACCGGCGCCGCCGGAGTCACCTAGTGCAG”: 9350 fluorescence intensity (a.u.); “TTTACCACCAAAACTTTTGCCATTTGCTATTTGCTATTCCCGGAGTCACCTAGTGCAG”: 9180 fluorescence intensity (a.u.).
Take “AATTTAGCTCCAATTATGTCCAACTCATCTATAACTTACTCGGAGTCACCTAGTGCAG”: the binding signal was 8660 fluorescence intensity (a.u.).
As for “CCCATCTCACCTCCACCCTATCATCAAGTGACTAAATTCGCGGAGTCACCTAGTGCAG”, the figure is 10000 fluorescence intensity (a.u.).
